# This is one part of the list. Further columns of the screen follow, without active or inactive calls. Compounds called inactive in the main read-out are mostly missing here. Potencies come from curve fits of mixed quality, noted in brackets.
# Experiment: qHTS Assay for Lipid Storage Modulators in Drosophila S3 Cells;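 for cell number change: cells counted by Cell Tracker Red CMTPX staining in the red channel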
# Conditions: BODIPY lipid droplet fluorescence, 18-24 h; for cell number change: measured here: cell count max response, cells fed with added oleic acid
# How it was run: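 Drosophila S3 cells loaded with oleic acid (400 uM, as added) and compounds at several concentrations; lipid droplets imaged by 488-nm laser-scanning cytometry, 500–530 nm intensity and object ratio to cell channel. Percent activity normalized to 20 uM Triacsin C.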
# [1] = measured here: lipid fluorescence (Fed channel) AC50, cells fed with added oleic acid
# [2] = measured here: cell number channel AC50, cells fed with added oleic acid
Compound,cell number change [%],AC50 [1],AC50 [2]
Cc1onc(-c2ccccc2)c1C(=O)NCc1cccnc1,-10.5,"0.366 µM [falling, partial curve]",
CCCCC(=O)Nc1ccc(C(=O)Nc2cccnc2)cc1,,,"0.651 µM [falling, single point]"
Cc1cc(C)c(CN2CCN(C(=O)Cn3ccc(N)nc3=O)CC2)c(C)c1,-3.13,"0.231 µM [falling, full curve, poor fit]",
CC(C)(C)c1ccc(S(=O)(=O)Nc2ccc3c(c2)COC3=O)cc1,-48.2,"14.6 µM [falling, partial curve, poor fit]","11.6 µM [falling, partial curve, poor fit]"
CCN(CC)c1ccc(/C=N/NC(=O)c2c(Cl)cnn2C)c(O)c1,28.8,"6.51 µM [rising, partial curve, poor fit]","6.51 µM [rising, partial curve, poor fit]"
COc1cc(OC)cc(C(=O)N2CCN(C(=O)c3cccs3)CC2)c1,-24.4,"0.82 µM [falling, partial curve, poor fit]","0.731 µM [falling, full curve, poor fit]"
O=c1cc(CN2CC(O)Cc3ccc4ccccc4c32)nc2sccn12 (stereo not given),,"0.116 µM [rising, full curve, poor fit]",
Cc1nc2c(C)cccn2c1C(=O)c1ccccc1,-5.97,"0.058 µM [falling, full curve, poor fit]",
CC(C)Oc1ccc(CNCCC2(C(C)C)CCOC(C)(C)C2)cc1 (stereo not given),-16.8,"20.6 µM [rising, single point]",
CCC1(CC)NC(=O)N(CC(=O)OC(C)C(=O)Nc2ccccc2OC)C1=O (stereo not given),-23.3,,
COc1ccc(C2CC(c3ccc(Br)cc3)=NN2C(=O)CSC2=NN3CCCC(=O)N=C3S2)cc1 (stereo not given),5.65,,
C=CCn1c(=N)n(CC(=O)O)c2ccccc21,,"23.1 µM [falling, partial curve]","2.06 µM [falling, partial curve, poor fit]"
CC1(C)CC(NC(=O)COc2ccc(Cl)cc2Cl)CC(C)(C)N1,-4.76,"6.51 µM [falling, single point]",
CC(=O)N1c2ccc(S(=O)(=O)N3CCCCC3)cc2CC1C(=O)Nc1ccc(F)cc1C (stereo not given),-23.8,"18.4 µM [rising, partial curve]","4.11 µM [falling, full curve, poor fit]"
CCOC(=O)/C(=C\C=C\N1CCOCC1)C(C)=O,31.6,"29.1 µM [rising, single point]","29.1 µM [rising, single point]"
COc1ccccc1C(=O)NC(CCSC)C(=O)N1CCN(C/C=C/c2ccccc2)CC1 (stereo not given),28.8,"20.6 µM [rising, partial curve, poor fit]","1.64 µM [rising, full curve, poor fit]"
Cc1ccc(NC(=O)Cn2c(O)c(N=NC(=O)c3cc([N+](=O)[O-])ccc3O)c3ccccc32)cc1,-14.4,,
CC(C)CC1Nc2ccc(C(=O)NCc3ccc4c(c3)OCO4)cc2NC1=O (stereo not given),26.9,,
COc1ccc2c(c1)C(NC(C)=O)C(=O)N2C (stereo not given),-16.4,"0.259 µM [falling, full curve, poor fit]","0.517 µM [falling, full curve]"
COc1cccc(NC(=O)CN(C)C(=O)c2ccc3ccccc3c2)c1,20.5,"29.1 µM [rising, single point]",

# Ordered by formula weight (low to high): some entries from above
Compound,cell number change [%],AC50 [1],AC50 [2]
CCCCC(=O)Nc1ccc(C(=O)Nc2cccnc2)cc1,,,"0.651 µM [falling, single point]"
CC(C)Oc1ccc(CNCCC2(C(C)C)CCOC(C)(C)C2)cc1 (stereo not given),-16.8,"20.6 µM [rising, single point]",
CCN(CC)c1ccc(/C=N/NC(=O)c2c(Cl)cnn2C)c(O)c1,28.8,"6.51 µM [rising, partial curve, poor fit]","6.51 µM [rising, partial curve, poor fit]"
CC(C)CC1Nc2ccc(C(=O)NCc3ccc4c(c3)OCO4)cc2NC1=O (stereo not given),26.9,,
CCC1(CC)NC(=O)N(CC(=O)OC(C)C(=O)Nc2ccccc2OC)C1=O (stereo not given),-23.3,,

# (next part)

Compound,cell number change [%],AC50 [1],AC50 [2]
Cc1ccc(NC(=O)CCC(=O)NNC(=O)c2cccs2)cc1C,20.7,"29.1 µM [rising, single point]",
COCCCNc1nc(N)c([N+](=O)[O-])c(Nc2ccccc2OC)n1,-4.8,,
Cc1cc(C)cc(NC(=O)N2CCCN(c3c(Cl)cncc3Cl)CC2)c1,-41.9,"20.6 µM [falling, single point]","29.1 µM [falling, single point]"
O=C(COC(=O)CCc1ccccc1)NC1CCS(=O)(=O)C1 (stereo not given),-25,,"0.82 µM [falling, full curve, poor fit]"
CCOC(=O)N/N=C\c1ccc(OC/C=C/c2ccccc2)c(OC)c1,-32.8,,"29.1 µM [falling, single point]"
COC(=O)c1ccc(NC(=O)C2CCCN2S(=O)(=O)c2ccc(C)cc2)cc1 (stereo not given),-6.4,"29.1 µM [falling, single point]",
COC(=O)c1cc(Cl)c(NC(=O)c2cc(OC)c(OC)c(OC)c2)cc1OC,,,"2.91 µM [rising, partial curve]"
Cc1cccc([N+](=O)[O-])c1NC(=O)COC(=O)c1nc2nccc(C)n2n1,15.2,"0.092 µM [rising, full curve, poor fit]",
CCOC(=O)c1nn(C23CC4CC(CC(C4)C2)C3)c2c1C(=O)N(c1ccc(C)cc1)C2=O,-33.9,"6.51 µM [rising, single point]","20.6 µM [falling, single point]"
COc1ccc(-c2cc(C(=O)N3CCN(c4ccc(F)cc4)CC3)no2)cc1OC,1.8,"11.6 µM [rising, single point]",
CCOP(=O)(OCC)/C(C#N)=C/c1ccc([N+](=O)[O-])cc1,2.78,,
O=S(=O)(c1ccccc1F)N1CCC(c2nc3ccccc3[nH]2)CC1,10.7,"7.31 µM [falling, partial curve]",
O=C(O)c1ccc(-c2nc3ccccc3[nH]2)cc1,107,"11.6 µM [rising, partial curve]","5.17 µM [rising, full curve]"
CCOC(=O)c1c(NC(=O)c2ccc(S(=O)(=O)N(C)CC3CCCO3)cc2)sc2c1CC(C)(C)NC2(C)C (stereo not given),4.09,,
CN(C(=O)c1cccc(C#N)c1)c1nnc(-c2cnccn2)s1,31,,"6.51 µM [rising, partial curve]"
COc1ccc(CCNC(=O)CC(c2ccccc2)c2cccc(C)c2O)cc1OC (stereo not given),-63.4,"23.1 µM [falling, partial curve]","20.6 µM [falling, single point]"
Cc1sc2ccc3sccc3c2[n+]1C,-24.7,"4.11 µM [falling, full curve]",
O=C(NC12CC3CC(CC(C3)C1)C2)N1CC2Cc3cccc(=O)n3C(C2)C1 (stereo not given),,,"6.51 µM [rising, single point]"
CCc1ccccc1OCC(=O)Nc1cc(S(=O)(=O)N2CCOCC2)ccc1N1CCCCC1,-19.2,"0.366 µM [falling, full curve]",
CN(CC(=O)Nc1cccc(F)c1)C(=O)c1ccccc1Cc1ccccc1,24.1,"6.51 µM [rising, single point]",

Compound,cell number change [%],AC50 [1],AC50 [2]
O=C(NCc1ccccc1)C(c1ccco1)N(C(=O)c1csnn1)c1ccccc1 (stereo not given),-27.6,"6.51 µM [rising, single point]",
COc1ccc(C(=O)N/N=C(\CCC(=O)O)c2ccc(C(C)(C)C)cc2)cc1OC,-18,,"0.58 µM [rising, partial curve]"
CCN(CC(=O)Nc1c(F)cccc1F)C(=O)c1ccc(NC(=O)CC2SC(N3CCCC3)=NC2=O)cc1 (stereo not given),-19.5,,
COc1ccc(NC(=O)Nc2nnc(Cc3ccc(OC)c(OC)c3)s2)cc1,-17.9,,
Cc1ccc(C(=O)Nc2c(N)nc(SCC(=O)NCC3CCCO3)[nH]c2=O)cc1 (stereo not given),5.82,"5.17 µM [rising, single point]",
CCCn1nc(C(=O)Nc2ccc(N3CCOCC3)cc2)c2ccccc2c1=O,-38.7,"6.51 µM [rising, full curve]","29.1 µM [falling, single point]"
Cc1ccc(SCCC(=O)OCC(=O)Nc2ccc(C(N)=O)cc2)cc1,10,"0.00461 µM [falling, full curve, poor fit]",
COC(=O)N/N=C(\C)c1ccccc1OC(F)F,-12.4,"2.06 µM [falling, partial curve]","1.03 µM [falling, full curve, poor fit]"
CC(C)OC(=O)Nc1ccc2c(c1)N(C(=O)N1CCN(C)CC1)c1ccccc1CC2,19.3,,
CC(=O)N1c2c(cc(Br)cc2S(=O)(=O)N2CCN(c3ccccc3F)CC2)CC1C (stereo not given),32.9,"6.51 µM [rising, single point]",
CCCN(C1CCS(=O)(=O)C1)S(=O)(=O)c1ccc2ccccc2c1 (stereo not given),-11.8,"2.06 µM [falling, single point]",
CCOC(=O)c1cnc2c(-c3ccc(Cl)cc3)cnn2c1C,-17.8,"32.6 µM [falling, single point]",
CCOC(=O)C1(C(F)(F)F)N=C(N(C)C)OC(N(C)C)=N1,6.19,"29.1 µM [falling, single point]",
CCCCS(=O)(=O)Nc1ccc(N2CCOCC2)c(S(=O)(=O)N2CCOCC2)c1,22.2,"4.11 µM [falling, single point]",
COCc1cc(C)n(CC(=O)OC)c(=O)c1C#N,16.9,,
O=C(Nc1nnc(S(=O)(=O)N2CCCC2)s1)c1ccccc1F,3.89,"29.1 µM [falling, single point]",
O=c1[nH]c(CSc2ncc(-c3ccc(F)cc3)n2Cc2ccco2)nc2ccccc12,-20.2,,
O=c1cc(CO)occ1OCc1cccc(F)c1,-29.4,"29.1 µM [falling, single point]",
CCOc1ccc(C(C)=O)cc1COC(=O)c1ccccc1C(=O)N(C)Cc1ccccc1,83.5,,"2.91 µM [rising, full curve]"
